Measured values as given in the supplement of paper PMC6078165.
± gives the standard deviation of the averaged measurements. Values are relative to the signal before dosing, not to a vehicle control; the signal also falls without drug.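 The cancer cells are triple-negative breast cancer lines of basal-like or mesenchymal-like type, grown without fibroblasts. A drop in red signal reflects loss of mitochondrial integrity, a stand-in for apoptotic death.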

Experiments:
[1] = tested on: HCC1143; experiment: relative JC-1 red fluorescence (viability) vs pre-drug, monoculture (fraction); higher = more viable cancer cells; settings: coculture fibroblast: none (monoculture)
Protocol: (§1)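 JC-1 labelled TNBC cells grown in monoculture (density kept equal with unlabelled cancer cells) in 384-well plates in FluoroBrite medium, treated with one of 42 anticancer drugs at 0.1, 1, 10 or 100 uM. JC-1 red fluorescence (mitochondrial integrity, surrogate of apoptotic death) was read by plate reader every 8 h for 72 h. Values are normalised to each well's pre-drug value, with background from alamethicin. The stock of one drug was tenfold lower, so its dose labels may be too high. Monoculture values are repeated alongside each fibroblast plate and are averaged here.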

[2] = tested on: Hs578T; experiment: as above; settings: coculture fibroblast: none (monoculture)
Protocol: as §1

CC(=O)O[C@@]12CO[C@@H]1C[C@H](O)[C@@]1(C)C(=O)[C@H](O)C3=C(C)[C@@H](OC(=O)[C@H](O)[C@@H](NC(=O)OC(C)(C)C)c4ccccc4)C[C@@](O)([C@@H](OC(=O)c4ccccc4)[C@H]21)C3(C)C [Docetaxel]
relative JC-1 red fluorescence
Settings | 8 h | 16 h | 24 h | 32 h | 40 h | 48 h | 56 h | 64 h | 72 h
[1], 0.1 µM | 0.9193 ± 0.0013 | 0.796 ± 0.013 | 0.7199 ± 0.0046 | 0.6405 ± 0.0056 | 0.59737 ± 0.00023 | 0.5904 ± 0.0041 | 0.583 ± 0.018 | 0.589 ± 0.028 | 0.595 ± 0.033
[1], 1 µM | 0.8839 ± 0.0078 | 0.818 ± 0.024 | 0.703 ± 0.041 | 0.624 ± 0.051 | 0.578 ± 0.067 | 0.532 ± 0.063 | 0.509 ± 0.064 | 0.508 ± 0.071 | 0.501 ± 0.068
[1], 10 µM | 0.901 ± 0.014 | 0.811 ± 0.027 | 0.713 ± 0.033 | 0.61 ± 0.031 | 0.55 ± 0.02 | 0.523 ± 0.0073 | 0.4934 ± 0.0028 | 0.478 ± 0.0092 | 0.473 ± 0.018
[1], 100 µM | 0.659 ± 0.081 | 0.564 ± 0.12 | 0.563 ± 0.15 | 0.576 ± 0.17 | 0.589 ± 0.18 | 0.609 ± 0.2 | 0.614 ± 0.19 | 0.628 ± 0.2 | 0.641 ± 0.2
[2], 0.1 µM | 0.8826 ± 0.0062 | 0.719 ± 0.046 | 0.621 ± 0.025 | 0.551 ± 0.036 | 0.501 ± 0.047 | 0.49 ± 0.057 | 0.462 ± 0.069 | 0.467 ± 0.085 | 0.461 ± 0.08
[2], 1 µM | 0.846 ± 0.019 | 0.744 ± 0.016 | 0.6858 ± 0.0018 | 0.607 ± 0.0086 | 0.547 ± 0.0083 | 0.52 ± 0.021 | 0.497 ± 0.023 | 0.507 ± 0.029 | 0.509 ± 0.031
[2], 10 µM | 0.9087 ± 0.0018 | 0.763 ± 0.0088 | 0.7373 ± 0.005 | 0.665 ± 0.0024 | 0.6108 ± 0.00089 | 0.5888 ± 0.0056 | 0.55 ± 0.012 | 0.537 ± 0.013 | 0.53 ± 0.017
[2], 100 µM | 0.805 ± 0.013 | 0.699 ± 0.02 | 0.6 ± 0.026 | 0.543 ± 0.016 | 0.521 ± 0.016 | 0.492 ± 0.007 | 0.468 ± 0.0097 | 0.461 ± 0.0043 | 0.446 ± 0.013

CC(=O)c1c(C)c2cnc(Nc3ccc(N4CCNCC4)cn3)nc2n(C2CCCC2)c1=O [Palbociclib]
relative JC-1 red fluorescence
Settings | 8 h | 16 h | 24 h | 32 h | 40 h | 48 h | 56 h | 64 h | 72 h
[1], 0.1 µM | 0.8827 ± 0.0036 | 0.787 ± 0.011 | 0.6992 ± 0.0059 | 0.633 ± 0.011 | 0.574 ± 0.0093 | 0.523 ± 0.0086 | 0.493 ± 0.0095 | 0.457 ± 0.01 | 0.4275 ± 0.004
[1], 1 µM | 0.9026 ± 0.0053 | 0.83762 ± 0.0006 | 0.7811 ± 0.0024 | 0.7344 ± 0.00039 | 0.6948 ± 0.0037 | 0.6514 ± 0.002 | 0.6208 ± 0.0011 | 0.596 ± 0.0075 | 0.573 ± 0.011
[1], 10 µM | 0.969 ± 0.025 | 0.936 ± 0.034 | 0.894 ± 0.025 | 0.857 ± 0.017 | 0.799 ± 0.012 | 0.746 ± 0.014 | 0.70834 ± 0.0004 | 0.6717 ± 0.0043 | 0.6422 ± 0.0032
[1], 100 µM | 0.547 ± 0.32 | 0.356 ± 0.24 | 0.198 ± 0.12 | 0.113 ± 0.062 | 0.0798 ± 0.047 | 0.0657 ± 0.04 | 0.0529 ± 0.038 | 0.0449 ± 0.036 | 0.0348 ± 0.03
[2], 0.1 µM | 0.8333 ± 0.0058 | 0.7128 ± 0.002 | 0.62 ± 0.01 | 0.554 ± 0.013 | 0.505 ± 0.022 | 0.474 ± 0.035 | 0.449 ± 0.035 | 0.432 ± 0.042 | 0.419 ± 0.043
[2], 1 µM | 0.906 ± 0.014 | 0.831 ± 0.014 | 0.7779 ± 0.0037 | 0.72068 ± 3e-05 | 0.676 ± 0.0089 | 0.66 ± 0.015 | 0.64 ± 0.024 | 0.638 ± 0.022 | 0.623 ± 0.021
[2], 10 µM | 0.97 ± 0.019 | 0.935 ± 0.02 | 0.864 ± 0.019 | 0.848 ± 0.053 | 0.837 ± 0.078 | 0.753 ± 0.077 | 0.72 ± 0.049 | 0.704 ± 0.067 | 0.661 ± 0.075
[2], 100 µM | 0.568 ± 0.036 | 0.34932 ± 0.0002 | 0.3563 ± 0.0021 | 0.272 ± 0.0035 | 0.238 ± 0.0078 | 0.221 ± 0.0057 | 0.202 ± 0.0061 | 0.192 ± 0.008 | 0.173 ± 0.0095
